# Assay results as given in publication PMC8819110.
# Sequences of proteins named here, by UniProt entry; tags and fusion partners are left off. A change or cut given only in a name is not applied to a line headed by its entry.
# UniProt Q84UE7: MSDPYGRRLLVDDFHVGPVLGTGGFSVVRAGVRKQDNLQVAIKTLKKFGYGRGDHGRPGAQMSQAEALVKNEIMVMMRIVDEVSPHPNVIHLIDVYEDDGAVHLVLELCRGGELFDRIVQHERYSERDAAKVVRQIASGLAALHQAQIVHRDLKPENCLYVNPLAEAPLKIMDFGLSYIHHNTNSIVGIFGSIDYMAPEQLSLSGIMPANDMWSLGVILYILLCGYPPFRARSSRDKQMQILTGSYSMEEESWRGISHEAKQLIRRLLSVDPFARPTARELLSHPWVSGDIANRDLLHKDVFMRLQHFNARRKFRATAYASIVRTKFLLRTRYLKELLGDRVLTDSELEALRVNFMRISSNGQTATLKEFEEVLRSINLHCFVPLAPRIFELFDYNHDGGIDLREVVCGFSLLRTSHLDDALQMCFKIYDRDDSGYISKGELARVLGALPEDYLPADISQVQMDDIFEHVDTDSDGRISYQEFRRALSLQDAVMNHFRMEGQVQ
# Molecular target: PpCCaMK-BD (Physcomitrium patens CCaMK fused to the GAL4 DNA-binding domain) (Physcomitrium patens) (UniProt Q84UE7)
# Assay: two-hybrid; GAL4 system in S. cerevisiae AH109; PpIPD3 on the activation domain, CCaMKs on the DNA-binding domain; growth on CSM-Leu-Trp-His-Ade at 30°C
substance,measurement,value
PpIPD3-AD (Physcomitrium patens IPD3 fused to the GAL4 activation domain) (from UniProt A0A7I4CGX4),binding,binds

# No constants are given. Whether binding was seen depends on the method and setting. Binding calls can cover weak binding; strength is not graded here.
